## Microarray screen: hit calls

Calls as published in the ROBIN set (doi:10.1002/anie.202211358).

Targets, with sequences 5′ to 3′:
TPP: TPP riboswitch RNA three-way junction, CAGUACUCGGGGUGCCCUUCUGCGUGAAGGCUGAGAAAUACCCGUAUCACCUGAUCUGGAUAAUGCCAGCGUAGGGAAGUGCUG. About 24,000 compounds screened, about 160 hits.
SAM-II: SAM-II riboswitch RNA pseudoknot, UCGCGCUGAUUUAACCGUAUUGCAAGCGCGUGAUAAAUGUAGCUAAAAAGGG. About 21,000 compounds screened, about 200 hits.
PreQ1: PreQ1 riboswitch RNA pseudoknot, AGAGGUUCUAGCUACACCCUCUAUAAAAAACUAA. From B. subtilis. About 24,000 compounds screened, about 170 hits.

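Compounds were printed on reactive glass slides in duplicate spots, a dye-labelled oligonucleotide was laid over them, and the fluorescence left after washing was read. For the PreQ1, TPP and SAM-II riboswitches the laboratory earlier reported (doi:10.1038/s41467-019-09493-3) 1 µM RNA, 2 h, and a rule that included a mean Z-score above 3 (spot signal-to-noise against the whole library), a score well above that on a control array, and duplicate spots agreeing (coefficient of variation under 100). The data file gives only the calls; its cut-offs may differ, and compounds hitting several targets are kept. The calls come from the array alone, and fixing a compound to the slide can hide its binding.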 A compound is marked hit if it was called a hit and no hit if it was screened but was not. Compounds were drawn at random from those tested, without regard to their results. A target missing from an entry has no call listed here.

Calls for Cc1ccccc1C(=O)Nc1ccc(C(=O)N2CCCC(O)c3cc(Cl)ccc32)c(C)c1 (stereo unspecified) are TPP: no hit; SAM-II: no hit; PreQ1: no hit. Fc1ccc(-c2noc3ncnc(NC4CCCC4)c23)cc1 was scored TPP: no hit; PreQ1: no hit. Calls for CN1CCC(CNc2ccc3ncc(-c4cccc(OC(F)(F)F)c4)n3n2)CC1 are TPP: no hit; SAM-II: no hit; PreQ1: no hit. With Cc1cc2c(c(=O)o1)C(c1ccc(F)c(Br)c1)C(C#N)=C(N)O2 (stereo unspecified) the screen gave TPP: no hit; SAM-II: no hit; PreQ1: no hit. COCc1cc(CNC2CCN(c3ncnc4c(C)csc34)CC2)n[nH]1 was scored TPP: no hit; SAM-II: no hit; PreQ1: no hit. Calls for CNc1c(NS(C)(=O)=O)c(=O)oc2ccccc12 are TPP: no hit; SAM-II: no hit; PreQ1: no hit. For Nc1cccc(-c2n[nH]c(-c3ccc(F)cc3)n2)c1 the calls were TPP: no hit; SAM-II: no hit; PreQ1: no hit. CC(=O)c1ccc(NC2OC(CO)C(O)C(O)C2O)cc1 (stereo unspecified) was scored TPP: no hit; SAM-II: no hit; PreQ1: no hit.

With CC(C)NCC(O)c1ccc(NS(C)(=O)=O)cc1 (stereo unspecified) the screen gave TPP: no hit; SAM-II: no hit; PreQ1: no hit. Calls for C=CCON=C(C[C@H]1O[C@@H]2O[C@]3(C)CC[C@@H]4[C@H](C)CC[C@@H]([C@H]1C)[C@@]24OO3)[C@H]1O[C@@H]2O[C@]3(C)CC[C@H]4[C@H](C)CC[C@@H]([C@@H]1C)[C@@]24OO3 are TPP: no hit; SAM-II: no hit; PreQ1: no hit. With Nc1ccc(Br)cc1Br the screen gave TPP: no hit; SAM-II: no hit; PreQ1: no hit. With CC1CC=C2C(=C(Nc3ccc(F)cc3)C(=O)N2c2ccc(F)cc2)C1 (stereo unspecified) the screen gave TPP: no hit; SAM-II: no hit; PreQ1: no hit. With COc1ccc(-n2ccnc2-c2cc3n(n2)CCNC3)cc1NS(C)(=O)=O the screen gave TPP: no hit; SAM-II: no hit; PreQ1: no hit. For COc1ccc(CC2c3cc(OC)c(OC)cc3CC[N+]2(C)CCC(=O)OCCCCCOC(=O)CC[N+]2(C)CCc3cc(OC)c(OC)cc3C2Cc2ccc(OC)c(OC)c2)cc1OC.O=S(=O)([O-])c1ccccc1.O=S(=O)([O-])c1ccccc1 (stereo unspecified) the calls were TPP: no hit; SAM-II: no hit; PreQ1: no hit. Calls for CCc1ccc2nc(Nc3nccc(C)n3)nc(C)c2c1 are TPP: no hit; SAM-II: no hit; PreQ1: no hit. For O=C(c1ccc(-n2cnnc2)cc1)N1C[C@H](CO)C[C@H](CN2CCCC2)C1 the calls were TPP: no hit; SAM-II: no hit; PreQ1: no hit.

Calls for CCNC(=O)c1nn(-c2ccc(CC)cc2)nc1CO are TPP: no hit; PreQ1: no hit. NCC1Cc2c(F)ccc(-c3nccs3)c2O1 (stereo unspecified) was scored TPP: no hit; SAM-II: no hit; PreQ1: no hit. For CCc1ocnc1C(=O)N1C[C@@H]2c3ccc(OC)cc3OC[C@]2(CO)C1 the calls were TPP: no hit; SAM-II: no hit; PreQ1: no hit. For O=C1OC(Nc2ccc(Cl)c(C(F)(F)F)c2)c2ccccc21 (stereo unspecified) the calls were TPP: no hit; SAM-II: no hit; PreQ1: no hit. With Cc1ccc(S(=O)(=O)[C@H]2CS(=O)(=O)C[C@@H]2NCCc2ccccc2F)cc1 the screen gave TPP: no hit; PreQ1: no hit. Cc1noc(C)c1CN1C(=O)[C@H]2CC[C@@H]1CN(C(=O)c1ccnc(N)c1)C2 was scored TPP: no hit; SAM-II: no hit; PreQ1: no hit. Calls for O=C(NCCOCCO)c1cccc(NCc2ccc(F)cc2)c1 are TPP: no hit; SAM-II: no hit; PreQ1: no hit. With Cc1cc(C)c(NC(=O)c2sc3nc(C)cc(C)c3c2N)c(C)c1 the screen gave TPP: no hit; SAM-II: no hit; PreQ1: no hit.

Calls for CCCC(O)c1nc2ccccc2n1CC(=O)N(c1ccccc1)C(C)C (stereo unspecified) are TPP: no hit; PreQ1: no hit. O=c1c2ccccc2nc(CNc2ccccc2)n1-c1ccccc1 was scored TPP: no hit; SAM-II: no hit; PreQ1: no hit. COc1ccccc1Nc1nc(C)nc2c1CCC2 was scored TPP: no hit; PreQ1: no hit. With Cc1nnc(N2CCC3(CC2)[C@H](O)C[C@@H]3OCCN(C)C)c2ccccc12 the screen gave TPP: no hit; SAM-II: no hit; PreQ1: no hit. For CCn1cnnc1CCNC1CCSCC1 the calls were TPP: no hit; SAM-II: no hit; PreQ1: no hit. With Cc1ncsc1CCN(C)CC1(O)CCNC1 (stereo unspecified) the screen gave TPP: no hit; SAM-II: no hit; PreQ1: no hit. Calls for Cc1nn(C(=O)c2ccc(F)cc2)c(N)c1-c1ccccc1 are TPP: no hit; SAM-II: no hit; PreQ1: no hit. With Cl.O=[N+]([O-])c1cccc(C2NCCC3(O)CCCCC23)c1 (stereo unspecified) the screen gave TPP: no hit; SAM-II: no hit; PreQ1: no hit.

Calls for CC(=O)N1CCOC(CNCc2cc(O)c3cccc(Cl)c3n2)C1 (stereo unspecified) are TPP: no hit; SAM-II: no hit; PreQ1: no hit. Calls for N#Cc1c(-c2c[nH]nc2-c2ccccc2)cc(-c2cccc(O)c2)nc1N are TPP: no hit; SAM-II: no hit; PreQ1: no hit. Cc1ccc2[nH]c3c(c2c1)CCCC3NCCCOc1ccc(F)cc1 (stereo unspecified) was scored TPP: no hit; SAM-II: no hit; PreQ1: no hit. For COC(=O)c1ccc2nc(C)cc(Nc3cccc(O)c3)c2c1 the calls were TPP: no hit; SAM-II: no hit; PreQ1: no hit. Calls for Cn1ccnc1-c1c(-c2ccccc2)ncn1C(CO)CO are TPP: no hit; SAM-II: no hit; PreQ1: no hit.

Once more, the final 3:

compound	TPP	SAM-II	PreQ1
Cc1ccc2[nH]c3c(c2c1)CCCC3NCCCOc1ccc(F)cc1 (stereo unspecified)	no hit	no hit	no hit
COC(=O)c1ccc2nc(C)cc(Nc3cccc(O)c3)c2c1	no hit	no hit	no hit
Cn1ccnc1-c1c(-c2ccccc2)ncn1C(CO)CO	no hit	no hit	no hit